Data taken from the supplement of paper PMC7666118.
Some of the results follow.

Protein sequences, listed by entry. Tags and fused reporters are not part of them. Lines headed by an entry give the natural chain unless they say otherwise; changes in a name come on top.
UniProt Q9UNN5: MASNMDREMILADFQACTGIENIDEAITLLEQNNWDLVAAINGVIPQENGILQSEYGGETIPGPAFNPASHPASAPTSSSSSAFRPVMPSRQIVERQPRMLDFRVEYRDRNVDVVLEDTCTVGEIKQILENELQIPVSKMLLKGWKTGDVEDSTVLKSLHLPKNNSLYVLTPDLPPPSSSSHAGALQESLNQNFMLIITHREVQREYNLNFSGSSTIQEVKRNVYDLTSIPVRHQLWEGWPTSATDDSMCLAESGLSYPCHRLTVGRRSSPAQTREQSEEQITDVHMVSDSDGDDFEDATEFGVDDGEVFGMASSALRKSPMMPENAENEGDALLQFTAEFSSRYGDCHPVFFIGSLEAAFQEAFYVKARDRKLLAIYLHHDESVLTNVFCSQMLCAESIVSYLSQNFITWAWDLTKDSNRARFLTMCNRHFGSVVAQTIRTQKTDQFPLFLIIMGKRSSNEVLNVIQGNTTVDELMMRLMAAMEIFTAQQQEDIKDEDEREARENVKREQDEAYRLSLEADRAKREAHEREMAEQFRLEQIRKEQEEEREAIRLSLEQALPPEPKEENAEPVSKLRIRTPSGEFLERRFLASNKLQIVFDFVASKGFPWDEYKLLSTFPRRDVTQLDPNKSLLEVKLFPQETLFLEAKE
UniProt Q9NSD9: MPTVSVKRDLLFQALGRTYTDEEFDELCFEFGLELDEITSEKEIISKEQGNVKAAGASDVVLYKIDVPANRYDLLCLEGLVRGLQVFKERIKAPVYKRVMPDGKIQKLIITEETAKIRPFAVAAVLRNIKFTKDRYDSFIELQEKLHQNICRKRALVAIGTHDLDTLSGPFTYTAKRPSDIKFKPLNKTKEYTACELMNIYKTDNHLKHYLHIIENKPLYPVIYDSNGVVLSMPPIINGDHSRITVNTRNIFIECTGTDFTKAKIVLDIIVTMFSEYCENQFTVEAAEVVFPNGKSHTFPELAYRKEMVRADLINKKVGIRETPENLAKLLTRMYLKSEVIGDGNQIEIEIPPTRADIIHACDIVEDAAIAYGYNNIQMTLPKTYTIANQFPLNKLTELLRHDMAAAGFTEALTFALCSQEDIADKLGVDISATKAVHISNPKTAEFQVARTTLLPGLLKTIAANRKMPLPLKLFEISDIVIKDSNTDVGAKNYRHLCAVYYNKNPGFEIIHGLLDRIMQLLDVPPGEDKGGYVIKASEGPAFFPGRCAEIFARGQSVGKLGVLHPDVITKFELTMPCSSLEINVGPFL
UniProt Q9UKB1: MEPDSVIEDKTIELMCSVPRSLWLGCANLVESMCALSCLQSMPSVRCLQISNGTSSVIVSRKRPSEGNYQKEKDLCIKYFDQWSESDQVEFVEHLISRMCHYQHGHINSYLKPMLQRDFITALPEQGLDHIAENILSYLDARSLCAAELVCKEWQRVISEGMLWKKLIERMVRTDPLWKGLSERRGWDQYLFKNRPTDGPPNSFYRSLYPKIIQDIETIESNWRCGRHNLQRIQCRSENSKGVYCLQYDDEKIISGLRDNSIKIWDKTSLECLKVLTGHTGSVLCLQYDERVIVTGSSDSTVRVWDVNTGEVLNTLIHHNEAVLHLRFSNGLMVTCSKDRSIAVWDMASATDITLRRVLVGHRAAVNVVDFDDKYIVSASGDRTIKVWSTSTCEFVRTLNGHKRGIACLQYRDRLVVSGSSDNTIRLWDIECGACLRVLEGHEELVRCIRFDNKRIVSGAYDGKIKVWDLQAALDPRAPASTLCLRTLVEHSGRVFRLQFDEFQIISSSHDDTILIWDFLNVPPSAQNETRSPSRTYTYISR
UniProt Q13643: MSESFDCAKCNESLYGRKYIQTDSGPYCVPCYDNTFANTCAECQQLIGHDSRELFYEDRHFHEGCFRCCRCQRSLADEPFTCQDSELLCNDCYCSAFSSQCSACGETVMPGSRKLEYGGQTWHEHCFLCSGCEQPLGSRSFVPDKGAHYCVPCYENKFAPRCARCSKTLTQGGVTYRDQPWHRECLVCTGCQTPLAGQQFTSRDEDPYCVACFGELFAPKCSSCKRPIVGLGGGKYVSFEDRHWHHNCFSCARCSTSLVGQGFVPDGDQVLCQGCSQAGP
UniProt P02794, whole entry: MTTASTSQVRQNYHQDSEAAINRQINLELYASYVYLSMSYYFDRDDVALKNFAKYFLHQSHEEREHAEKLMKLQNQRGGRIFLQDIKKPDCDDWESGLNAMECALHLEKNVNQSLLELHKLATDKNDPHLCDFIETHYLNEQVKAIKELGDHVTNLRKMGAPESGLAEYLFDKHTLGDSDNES
UniProt A0FGR8: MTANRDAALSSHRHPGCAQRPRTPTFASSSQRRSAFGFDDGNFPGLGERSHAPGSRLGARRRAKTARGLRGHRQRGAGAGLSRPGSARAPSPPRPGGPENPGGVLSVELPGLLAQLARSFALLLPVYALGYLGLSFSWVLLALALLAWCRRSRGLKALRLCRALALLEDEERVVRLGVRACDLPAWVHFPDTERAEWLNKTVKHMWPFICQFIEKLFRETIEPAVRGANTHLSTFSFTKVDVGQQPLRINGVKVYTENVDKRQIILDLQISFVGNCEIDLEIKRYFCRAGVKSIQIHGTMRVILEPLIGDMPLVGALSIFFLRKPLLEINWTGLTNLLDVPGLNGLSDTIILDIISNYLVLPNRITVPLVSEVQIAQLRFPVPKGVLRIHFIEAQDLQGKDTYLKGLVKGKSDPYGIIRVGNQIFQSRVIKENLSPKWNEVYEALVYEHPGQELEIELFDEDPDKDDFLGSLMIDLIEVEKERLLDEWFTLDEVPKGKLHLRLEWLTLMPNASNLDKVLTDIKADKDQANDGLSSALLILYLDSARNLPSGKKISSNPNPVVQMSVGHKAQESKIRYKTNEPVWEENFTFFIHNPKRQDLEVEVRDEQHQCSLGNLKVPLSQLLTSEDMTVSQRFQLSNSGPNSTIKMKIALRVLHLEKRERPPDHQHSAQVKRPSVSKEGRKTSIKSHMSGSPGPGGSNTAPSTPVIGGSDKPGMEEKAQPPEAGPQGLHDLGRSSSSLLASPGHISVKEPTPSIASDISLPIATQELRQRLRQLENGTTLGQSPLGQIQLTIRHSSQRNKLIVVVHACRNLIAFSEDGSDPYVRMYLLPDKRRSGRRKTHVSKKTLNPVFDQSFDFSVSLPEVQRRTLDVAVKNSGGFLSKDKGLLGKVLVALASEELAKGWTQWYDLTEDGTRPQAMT
UniProt O75955: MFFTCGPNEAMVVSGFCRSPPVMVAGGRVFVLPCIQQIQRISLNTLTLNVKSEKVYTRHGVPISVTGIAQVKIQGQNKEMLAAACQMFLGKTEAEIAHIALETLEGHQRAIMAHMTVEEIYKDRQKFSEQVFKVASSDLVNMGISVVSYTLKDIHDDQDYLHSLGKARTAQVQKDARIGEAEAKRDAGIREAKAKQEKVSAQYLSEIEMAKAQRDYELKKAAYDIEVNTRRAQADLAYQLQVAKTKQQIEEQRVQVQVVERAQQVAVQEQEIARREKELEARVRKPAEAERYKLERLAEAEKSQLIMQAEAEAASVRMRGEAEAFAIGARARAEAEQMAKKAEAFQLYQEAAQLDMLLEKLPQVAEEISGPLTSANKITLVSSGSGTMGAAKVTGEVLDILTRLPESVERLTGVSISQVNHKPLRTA
UniProt Q5HYJ3: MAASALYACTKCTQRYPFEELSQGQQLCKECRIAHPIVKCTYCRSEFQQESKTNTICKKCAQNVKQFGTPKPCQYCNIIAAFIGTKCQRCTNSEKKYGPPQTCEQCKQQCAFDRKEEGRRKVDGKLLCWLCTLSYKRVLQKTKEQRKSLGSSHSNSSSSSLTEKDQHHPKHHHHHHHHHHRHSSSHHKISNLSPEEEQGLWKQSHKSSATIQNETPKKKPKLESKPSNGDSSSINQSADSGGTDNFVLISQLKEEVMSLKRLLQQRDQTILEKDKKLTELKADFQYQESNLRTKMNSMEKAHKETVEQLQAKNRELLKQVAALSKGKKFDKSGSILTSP
UniProt Q99504: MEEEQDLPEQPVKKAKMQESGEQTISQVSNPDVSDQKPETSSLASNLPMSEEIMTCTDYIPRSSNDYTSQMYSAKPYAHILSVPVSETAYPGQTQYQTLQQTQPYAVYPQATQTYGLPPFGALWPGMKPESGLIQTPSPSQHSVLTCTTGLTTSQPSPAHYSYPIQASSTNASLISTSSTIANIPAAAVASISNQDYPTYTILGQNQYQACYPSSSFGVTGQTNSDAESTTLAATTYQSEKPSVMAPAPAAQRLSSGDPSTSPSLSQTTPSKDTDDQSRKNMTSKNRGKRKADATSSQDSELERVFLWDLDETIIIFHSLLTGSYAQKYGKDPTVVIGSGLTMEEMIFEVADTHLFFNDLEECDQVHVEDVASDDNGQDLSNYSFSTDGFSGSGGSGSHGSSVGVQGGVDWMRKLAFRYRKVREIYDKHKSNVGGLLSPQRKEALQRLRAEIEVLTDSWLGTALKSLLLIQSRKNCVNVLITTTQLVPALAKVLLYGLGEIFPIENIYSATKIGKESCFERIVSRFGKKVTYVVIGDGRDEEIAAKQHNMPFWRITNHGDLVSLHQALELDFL
UniProt P16591: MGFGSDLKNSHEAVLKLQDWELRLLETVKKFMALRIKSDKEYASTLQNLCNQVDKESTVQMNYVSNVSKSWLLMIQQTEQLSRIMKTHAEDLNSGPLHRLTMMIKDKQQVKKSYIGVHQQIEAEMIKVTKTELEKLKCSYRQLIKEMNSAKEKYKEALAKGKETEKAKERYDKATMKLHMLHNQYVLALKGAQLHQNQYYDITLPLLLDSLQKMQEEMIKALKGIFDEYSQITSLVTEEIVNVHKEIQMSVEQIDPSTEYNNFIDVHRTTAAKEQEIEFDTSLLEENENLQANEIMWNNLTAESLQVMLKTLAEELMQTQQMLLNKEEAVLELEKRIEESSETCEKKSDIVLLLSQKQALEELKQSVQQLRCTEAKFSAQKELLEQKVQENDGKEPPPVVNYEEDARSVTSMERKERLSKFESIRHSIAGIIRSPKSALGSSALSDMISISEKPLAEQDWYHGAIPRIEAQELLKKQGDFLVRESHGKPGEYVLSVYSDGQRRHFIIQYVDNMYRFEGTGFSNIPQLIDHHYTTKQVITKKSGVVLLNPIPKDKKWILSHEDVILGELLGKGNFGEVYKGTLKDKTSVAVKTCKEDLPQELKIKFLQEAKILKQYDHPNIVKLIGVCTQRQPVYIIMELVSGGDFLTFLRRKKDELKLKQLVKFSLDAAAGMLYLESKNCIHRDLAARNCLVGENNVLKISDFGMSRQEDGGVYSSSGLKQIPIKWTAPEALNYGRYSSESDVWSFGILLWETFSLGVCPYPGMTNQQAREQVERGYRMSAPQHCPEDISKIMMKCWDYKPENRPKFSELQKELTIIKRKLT
UniProt Q5VST6: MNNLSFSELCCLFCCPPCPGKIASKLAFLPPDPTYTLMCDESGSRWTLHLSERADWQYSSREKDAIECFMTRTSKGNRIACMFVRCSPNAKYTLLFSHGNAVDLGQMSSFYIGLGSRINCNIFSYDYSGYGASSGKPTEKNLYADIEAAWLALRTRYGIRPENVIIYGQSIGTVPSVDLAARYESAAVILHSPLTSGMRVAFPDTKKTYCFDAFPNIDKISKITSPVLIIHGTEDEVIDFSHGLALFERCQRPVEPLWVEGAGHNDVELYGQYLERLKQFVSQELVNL
UniProt Q9NWS6: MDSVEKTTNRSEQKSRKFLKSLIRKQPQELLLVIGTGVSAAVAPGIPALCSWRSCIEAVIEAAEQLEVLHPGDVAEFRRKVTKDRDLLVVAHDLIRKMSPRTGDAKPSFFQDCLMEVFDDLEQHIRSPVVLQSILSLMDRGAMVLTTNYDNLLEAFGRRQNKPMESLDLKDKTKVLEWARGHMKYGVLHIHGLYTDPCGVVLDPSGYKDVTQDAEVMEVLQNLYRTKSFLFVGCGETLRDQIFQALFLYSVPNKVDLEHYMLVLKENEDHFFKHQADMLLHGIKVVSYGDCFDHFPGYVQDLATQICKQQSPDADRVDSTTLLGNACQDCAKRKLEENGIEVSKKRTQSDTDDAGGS
UniProt Q9UKA2: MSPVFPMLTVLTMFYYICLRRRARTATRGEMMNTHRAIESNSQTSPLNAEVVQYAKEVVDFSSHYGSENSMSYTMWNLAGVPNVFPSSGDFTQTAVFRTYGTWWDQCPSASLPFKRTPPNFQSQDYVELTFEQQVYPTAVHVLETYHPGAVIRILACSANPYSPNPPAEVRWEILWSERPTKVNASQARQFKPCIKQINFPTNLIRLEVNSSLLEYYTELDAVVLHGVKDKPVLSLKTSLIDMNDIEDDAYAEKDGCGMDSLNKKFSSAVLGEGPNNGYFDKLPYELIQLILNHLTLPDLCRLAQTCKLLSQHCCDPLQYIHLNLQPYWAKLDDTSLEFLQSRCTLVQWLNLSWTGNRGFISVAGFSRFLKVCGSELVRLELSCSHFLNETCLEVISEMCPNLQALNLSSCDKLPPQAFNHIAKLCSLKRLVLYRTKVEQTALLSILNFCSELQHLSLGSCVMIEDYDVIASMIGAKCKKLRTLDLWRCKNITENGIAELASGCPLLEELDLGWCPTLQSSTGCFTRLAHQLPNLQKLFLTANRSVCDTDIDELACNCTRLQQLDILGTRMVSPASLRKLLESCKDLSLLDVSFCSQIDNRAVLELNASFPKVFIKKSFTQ

Compound: COc1ccc(Cn2ccc3ccc(C(=O)NO)cc32)cc1
Assay: dose-dependent thermal stabilisation call (2D-TPP, DLPTP, 10% FDR) (binary (1 = stabilised)); higher = stabilised by the compound
Conditions: system: HL-60 intact cells; concentration range 0.04-10 µM

Row | Target | dose-dependent thermal stabilisation call
1 | FAM8A1 (UniProt Q9UBU6) | inactive: 0
2 | FAM65A (UniProt Q6ZS17) | inactive: 0
3 | FBXO45 (UniProt P0C2W1) | inactive: 0
4 | FAF1 (UniProt Q9UNN5) | inactive: 0
5 | GADD45GIP1 (UniProt Q8TAE8) | inactive: 0
6 | FARSB (UniProt Q9NSD9) | inactive: 0
7 | FBXW11 (UniProt Q9UKB1) | inactive: 0
8 | FKBPL (UniProt Q9UIM3) | inactive: 0
9 | FHL3 (UniProt Q13643) | inactive: 0
10 | EZH2 (UniProt Q15910) | inactive: 0
11 | FTH1 (UniProt P02794) | inactive: 0
12 | FAS (UniProt P25445) | inactive: 0
13 | FOXK2 (UniProt Q01167) | inactive: 0
14 | FBXL18 (UniProt Q96ME1) | inactive: 0
15 | FBRS (UniProt Q9HAH7) | inactive: 0
16 | FOXRED2 (UniProt Q8IWF2) | inactive: 0
17 | FAM62B (UniProt A0FGR8) | inactive: 0
18 | FLOT1 (UniProt O75955) | inactive: 0
19 | FAM76B (UniProt Q5HYJ3) | inactive: 0

Row | Target | dose-dependent thermal stabilisation call
20 | GART (UniProt P22102) | inactive: 0
21 | FAM119A (UniProt Q8WXB1) | inactive: 0
22 | EYA3 (UniProt Q99504) | inactive: 0
23 | FER (UniProt P16591) | inactive: 0
24 | FAH (UniProt P16930) | inactive: 0
25 | FAM108B1 (UniProt Q5VST6) | inactive: 0
26 | FAU (UniProt P62861) | inactive: 0
27 | FH (UniProt P07954) | inactive: 0
28 | FAM107B (UniProt Q9H098) | inactive: 0
29 | FOXO3 (UniProt O43524) | inactive: 0
30 | FAM120C (UniProt Q9NX05) | inactive: 0
31 | FLJ11506 | inactive: 0
32 | FAM3C (UniProt Q92520) | inactive: 0
33 | FNTB (UniProt P49356) | inactive: 0
34 | FAM118A (UniProt Q9NWS6) | inactive: 0
35 | FBXL4 (UniProt Q9UKA2) | inactive: 0
36 | FNTA (UniProt P49354) | inactive: 0
37 | FAM82B (UniProt Q96DB5) | inactive: 0
38 | GARNL1 (UniProt Q6GYQ0) | inactive: 0

Two records picked at random from those above, as already listed:
Row | Target | dose-dependent thermal stabilisation call
15 | FBRS (UniProt Q9HAH7) | inactive: 0
27 | FH (UniProt P07954) | inactive: 0
